# According to article PMC6925144, “A prospective compound screening contest identified broader inhibitors for Sirtuin 1” (Scientific Reports, 2019):
# Protein sequences, listed by entry. Tags and fused reporters are not part of them. Residues count along the entry.
# UniProt Q96EB6, 2-747 limits assumed: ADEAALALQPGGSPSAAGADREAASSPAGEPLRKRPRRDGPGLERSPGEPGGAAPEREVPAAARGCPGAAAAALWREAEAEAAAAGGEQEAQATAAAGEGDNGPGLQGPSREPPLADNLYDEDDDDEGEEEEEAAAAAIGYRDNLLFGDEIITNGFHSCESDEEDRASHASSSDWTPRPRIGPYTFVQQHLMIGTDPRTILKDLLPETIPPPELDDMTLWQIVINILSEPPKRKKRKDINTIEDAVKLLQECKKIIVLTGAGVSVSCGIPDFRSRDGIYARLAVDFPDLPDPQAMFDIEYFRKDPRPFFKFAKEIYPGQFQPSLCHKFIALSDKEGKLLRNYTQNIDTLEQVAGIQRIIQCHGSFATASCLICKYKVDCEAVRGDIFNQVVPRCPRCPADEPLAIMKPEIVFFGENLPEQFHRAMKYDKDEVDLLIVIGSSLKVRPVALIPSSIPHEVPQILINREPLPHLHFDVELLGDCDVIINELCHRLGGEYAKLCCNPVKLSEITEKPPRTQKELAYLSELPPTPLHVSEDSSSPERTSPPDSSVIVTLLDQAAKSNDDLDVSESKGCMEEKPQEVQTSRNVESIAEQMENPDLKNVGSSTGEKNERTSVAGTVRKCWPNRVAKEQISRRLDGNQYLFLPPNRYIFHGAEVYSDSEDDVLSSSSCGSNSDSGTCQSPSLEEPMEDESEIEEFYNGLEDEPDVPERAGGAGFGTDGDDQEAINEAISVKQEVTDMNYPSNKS
# Whole data set: some 3,200 compounds, median “TSA(without NAD+) / Primary screening (TSA) / delta Tm (K)” near -0.07, cut for the highest 2% near 0.37. The list shows a part of the results.
# Biological target: NAD-dependent deacetylase Sirtuin 1 (human, UniProt Q96EB6)
# Test: primary screen, delta tm
# Set-up: single well (n = 1)
# Settings: 10 µM
# How it was run: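 Thermal shift of Sirtuin 1 measured without NAD+, compound at 10 µM (n = 1); value is ΔTm, with hits defined as ΔTm > 0.45 K or < −1.5 K. Hits retested at 5, 10, 20 µM (n = 4) and counterscreened on bovine carbonic anhydrase and ABL1 SH2 domain.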
row,SMILES,TSA(without NAD+) / Primary screening (TSA) / delta Tm (K)
1,CN(C)c1ccc(CNc2ncnc3ccsc23)cn1,0.05
2,CC(C)OCCN,-0.17
3,CN(c1cccc(Cl)c1)S(=O)(=O)c1cccc(C(=O)Nc2ncc(C(N)=O)s2)c1,0.37
4,CCC(C)(C)NC(=O)c1ccc2[nH]c(=O)c(=O)[nH]c2c1,0.05
5,CC1CN(CC(=O)c2ccccc2Cl)CC(C)O1 (stereo not shown),-0.27
6,O=C(N/N=C/c1ccc(O)cc1O)C(=O)N/N=C/c1ccc(O)cc1O,-0.03
7,NC(=O)C1CCCCCC1NC(=O)c1ccncc1Cl (stereo not shown),-0.18
8,COc1ccc(/C=C2\Oc3cc(OC)ccc3C2=O)c(OC)c1,-0.08
9,CC(=O)Nc1ccc(-c2csc(NC(=O)Cn3[nH]c(=O)ccc3=O)n2)cc1,-0.18
10,CN(C(=O)c1cc(O)nc2ccccc12)c1ccc2ccccc2c1,-0.03
11,O=C(CN1CCN(C(=O)c2cc(-c3ccncc3)nc3ccccc23)CC1)Nc1ccccc1Cl,-0.18
12,Cc1cc(C=C2C(=O)NC(=S)NC2=O)c(C)n1-c1ccccc1Cl,-0.67
13,NC(=O)c1ccc(NC(=O)COC(=O)/C=C/c2ccc3c(c2)OCO3)cc1,-0.13
14,Cc1ccccc1C1CN(C(=O)C2CCc3n[n-]nc3C2)CCO1 (stereo not shown),-0.13
15,CC(NC(=O)COC(=O)CCCN1C(=O)c2cccc3cccc(c23)C1=O)C12CC3CC(CC(C3)C1)C2 (stereo not shown),-0.34
16,OCCCCN1CCN(c2ncnc3cc(Cl)ccc23)CC1,0.08
17,CC1CCc2c(sc3ncnc(N4CCN(Cc5csc(-c6ccco6)n5)CC4)c23)C1 (stereo not shown),-0.12
18,O=C(Cn1cnc2sc3c(c2c1=O)CCC3)N1CCc2ccccc2C1,-0.12
19,Cn1cc(C2CCN(c3ncnc4ccccc34)CC2)cn1,-0.11
20,COC(=O)CCCNC(=O)c1cc(-c2ccco2)nc2c(C(N)=O)ncn12,-0.07
21,Nn1c(S)nnc1-c1ccccc1F,-0.23
22,O=C(CCl)c1c(-c2ccc(F)cc2)[nH]c2ccccc12,0.08
23,CCNC(=O)C(C)NC(=O)c1cccc(S(=O)(=O)N(C)c2ccc(C)cc2)c1 (stereo not shown),-0.12
24,CCOc1cccc(C2C(C(=O)c3cc4ccccc4o3)=C(O)C(=O)N2CCCN2CCOCC2)c1 (stereo not shown),-0.01

row,SMILES,TSA(without NAD+) / Primary screening (TSA) / delta Tm (K)
1,Cc1[nH]c2ccccc2c1CC(=O)Nc1cccc(-c2noc(=O)[nH]2)c1,0.07
2,O=C(Nc1ccccc1)c1ccc(CNC(c2ccccc2)c2ccccc2)cc1,0.12
3,O=C(O)CCCCNC(=O)OCc1ccccc1,-0.15
4,Cc1c(C(=O)O)c(=O)oc2cc(F)ccc12,-0.21
5,NC(=O)c1cccc2c1CCCN2C(=O)CCCn1c(=O)oc2ccccc21,0.02
6,COC(=O)C(C(=O)c1ccccc1)=C1Nc2ccccc2N1,-0.12
7,CN(c1ccccc1)S(=O)(=O)c1cccc(NC(=O)c2cc(Cl)nc3ccccc23)c1,0.17
8,COC(=O)c1ccc(C(=O)NNC(=O)Cc2cn3ccsc3n2)cc1,0.35
9,CCCCn1c(N)c(NC)c(=O)[nH]c1=O,-0.28
10,CN(C)C(=O)c1ccc2[nH]c3c(c2c1)CCCCC3,0.17
11,CC(C)Cc1cc(NC(=O)Cc2coc(-c3cccs3)n2)n(C)n1,-0.13
12,O=C(Nc1cccc(C(F)(F)F)c1)c1cccc(NC(=O)c2cc3c(cc2[N+](=O)[O-])OCCO3)c1,0.23
13,COc1cc(CN(C)C(=O)Cc2ccc3c(c2)OCCO3)ccc1OCc1ccccc1,-0.14
14,CCCNC(=O)CNc1ccccc1OC(F)F,-0.18
15,Cc1ccc2[nH]c3c(c2c1)CC(C)(C)CC3,-0.38
16,CC(O)CCCN (stereo not shown),-0.18
17,O=C(COC(=O)C1=COCCO1)NCCc1c[nH]c2ccccc12,-0.22
18,CCCOc1ccc(/C=c2/s/c(=C\C(=O)OCC)n(CC(=O)NCC3CCCO3)c2=O)cc1OCC (stereo not shown),0.06
19,Cc1nn(Cc2ccccc2)c(Cl)c1/C=C/C(=O)OC(C)C(=O)Nc1ncc(Cl)cc1Cl (stereo not shown),0.07
20,COc1ccccc1C1C(C(=O)/C=C/c2ccco2)=C(O)C(=O)N1CCCN1CCOCC1 (stereo not shown),-0.22
21,O=C(O)CC(O)(CC(=O)O)C(=O)O,0.02
22,CCCNC(=O)Nc1ccc(OC)cc1,-0.12
23,NC(=O)C1CCCN(c2ncnc3cc(-c4ccc(Br)cc4)sc23)C1 (stereo not shown),-0.18
24,CC1Cc2ccccc2N1S(N)(=O)=O (stereo not shown),-0.17

row,SMILES,TSA(without NAD+) / Primary screening (TSA) / delta Tm (K)
1,CC(C)C(O)c1ccccc1NC(=O)c1cc2ccccc2n1C (stereo not shown),-0.13
2,c1ccc(OC2CCN(c3ncnc4c3oc3ccccc34)CC2)nc1,0.25
3,COc1cccc(C(C)NCc2ccc3[nH]c(=O)[nH]c3c2)c1 (stereo not shown),-0.02
4,CCc1cc(CN2CCc3cc(OC)c(OC)cc3C2)c(C)cc1O,-0.23
5,CCN(CC(=O)Nc1ccc(NC(C)=O)cc1)C(=O)CCCSc1nc2ccccc2[nH]1,0.22
6,O=C(O)CCn1cc(C=C2C(=O)NC(=O)NC2=O)c(-c2ccc(Br)cc2)n1,-0.32
7,O=C(OCC(=O)C12CC3CC(CC(C3)C1)C2)c1ccc(N2C(=O)c3ccccc3C2=O)cc1,-0.01
8,O=C(CCc1nc2ccccc2c(=O)[nH]1)Nc1cccc(S(=O)(=O)NCc2ccco2)c1,-0.08
9,Cc1c(C)n(-c2ccc(O)cc2)c2ncnc(N)c12,-0.07
10,O=C(NC1CCN(C(=O)Nc2ccc([N+](=O)[O-])cc2)CC1)c1ccccn1,-0.08
11,NC1=Nc2nc3ccccc3n2C(c2ccc(-c3ccc(C(=O)O)cc3)o2)N1 (stereo not shown),1.36
12,CN/C(=N/c1ccc2ccccc2c1)c1ccccc1,-0.08
13,Cc1nc(C(=O)NC(Cc2ccccc2)C(=O)N(C)C)ccc1C#N (stereo not shown),0.12
14,Cc1nc(N2CCN(c3ncccc3C(N)=O)CC2)c2c3c(sc2n1)CCC3,-0.22
15,O=C(Nc1ccccc1Cc1ccccc1)C12CC3CC(CC(Br)(C3)C1)C2,0.18
16,Cc1cccc(-n2ccnc2SCC(=O)Nc2ccc(S(=O)(=O)Nc3nccs3)cc2)c1C,0.08
17,Cc1ccc(NC(=O)c2cc3c(nc4sccn43)s2)c(O)c1,0.17
18,CCc1cc2c(N3CCN(Cc4ccc5c(c4)OCO5)CC3)ncnc2s1,-0.05
19,O=C(CCn1ccccc1=O)Nc1cccnc1,-0.11
20,NC(=O)C1CC(O)CN1c1ncnc2cc(-c3ccc(Br)cc3)sc12 (stereo not shown),-0.12
21,CC(O)C(N)CN (stereo not shown),-0.04
22,Cc1ccc2c(c1)c(=O)n(C)c1nnc(CN3CCc4ccccc4C3)n21,-0.32
23,CC1CC1c1ccc(CCC(=O)NCC2CCCN(Cc3cccs3)C2)o1 (stereo not shown),-0.23
24,O=C1/C(=C/c2ccccc2OC(F)F)Oc2cc(O)ccc21,0.02

# By substructure: those above with an aryl methoxy group (six)
row,SMILES,TSA(without NAD+) / Primary screening (TSA) / delta Tm (K)
8,COc1ccc(/C=C2\Oc3cc(OC)ccc3C2=O)c(OC)c1,-0.08
13,COc1cc(CN(C)C(=O)Cc2ccc3c(c2)OCCO3)ccc1OCc1ccccc1,-0.14
20,COc1ccccc1C1C(C(=O)/C=C/c2ccco2)=C(O)C(=O)N1CCCN1CCOCC1 (stereo not shown),-0.22
22,CCCNC(=O)Nc1ccc(OC)cc1,-0.12
3,COc1cccc(C(C)NCc2ccc3[nH]c(=O)[nH]c3c2)c1 (stereo not shown),-0.02
4,CCc1cc(CN2CCc3cc(OC)c(OC)cc3C2)c(C)cc1O,-0.23

# (more compounds)

row,SMILES,TSA(without NAD+) / Primary screening (TSA) / delta Tm (K)
1,O=C(O)c1ccc2[nH]c(S)nc2c1,-0.13
2,O=C(NCC1CCCO1)Nc1ccc(NC(=O)c2ccccn2)cc1 (stereo not shown),0.07
3,O=C(/C=C/c1ccccn1)NCc1ccc(OCC2CCCO2)cc1 (stereo not shown),0.09
4,CCc1nsc(NCc2cccnc2N2CCC(C(N)=O)CC2)n1,-0.01
5,OCCN(c1ncnc2c1oc1ccccc12)C1CC1,-0.33
6,COc1ccc(CCCC(=O)Nc2ccc(C(N)=O)cc2OCC(F)F)cc1,-0.23
7,COCCNc1oc2c(c1-c1ccccc1[N+](=O)[O-])c(=O)oc1c(C)cccc12,0.03
8,Cn1cnc(-c2ccc(OCC(=O)Nc3cccc(C(=O)NC4CC4)c3)cc2)n1,-0.02
9,Cc1ccc2nc(Cl)c(C=C3C(=O)NC(=S)NC3=O)c(=O)n2c1,-0.07
10,O=C1NC(=S)N/C1=C\c1ccccc1OCc1ccc(C(=O)O)cc1,0.38
11,N#Cc1ccccc1Sc1ccccc1C(=O)OCC(=O)NC(=O)NC12CC3CC(CC(C3)C1)C2,-0.21
12,COc1ccc(CCSc2nnc(-c3cccnc3)n2N)cc1,-0.03
13,NS(=O)(=O)Nc1cccc(CNC(=O)CCCc2nc3ccccc3c(=O)[nH]2)c1,-0.13
14,CCOc1ccccc1NC(=O)c1cccc(S(=O)(=O)NC(C)C23CC4CC(CC(C4)C2)C3)c1 (stereo not shown),0.16
15,CC(C)C(C)CN (stereo not shown),-0.21
16,CC(C(=O)Nc1cccc2ccccc12)N1CCc2ccc(O)cc2CC1 (stereo not shown),-0.14
17,Cc1ccc(C(=O)C2CCN(c3cc(=O)n4ccccc4n3)CC2)cc1,-0.22
18,COc1ccc(CN(C)C(=O)c2cnc3ccccn3c2=O)cc1F,0.12
19,O=C1OC(C(=O)O)Cc2ccccc21 (stereo not shown),0.02
20,COCc1nnc(S)[nH]1,-0.02
21,Cn1cc(S(=O)(=O)N2CCN(C(=O)Cn3cnc4ccc(F)cc4c3=O)CC2)cc1C(N)=O,-0.04
22,O=C(CC12CC3CC(CC(C3)C1)C2)NNC(=O)c1ccc(NS(=O)(=O)/C=C/c2ccccc2)cc1,0.17
